The supplement of paper PMC6143611
Counter-ions that a name gives are not always drawn. ± gives the uncertainty stated by the source. Some of the results follow. Baselines shift from plate to plate; read single values as rough.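 At 6 dpf, larvae had a heat-shock-induced fluorescent stripe placed in rod outer segments; shedding distance, from stripe to outer segment tip, was measured in confocal stacks, roughly three fish per compound. Controls received 0.2% DMSO vehicle; compounds were flagged for ≥20% change versus same-week control and p < 0.001 (Dunnett test, mixed-effects models).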

What was measured:
[1] = system: Danio rerio larva rod photoreceptor outer segment; assay: rod outer segment growth distance Dg, difference from same-week DMSO control mean; higher = more outer segment growth; conditions: 20 µM; treatment time: 4 days (6-10 dpf)
[2] = system: Danio rerio larva rod photoreceptor outer segment; assay: rod outer segment shedding distance Ds, difference from same-week DMSO control mean; higher = less outer segment shedding; conditions: 20 µM; treatment time: 4 days (6-10 dpf)

Row | Compound | rod outer segment growth distance Dg [1] [um] | rod outer segment shedding distance Ds [2] [um]
1 | Cn1cc(C2=C(c3ccc(Cl)cc3Cl)C(=O)NC2=O)c2ccccc21 | 0.14 ± 0.15 | 0.58 ± 0.23
2 | CNC(=O)c1ccc(N2C(=S)N(c3cnc(C#N)c(C(F)(F)F)c3)C(=O)C23CCC3)cc1F | 0.68 ± 0.17 | -0.49 ± 0.12
3 | CC(=O)OCC(=O)[C@@]12OC(C)(C)O[C@@H]1C[C@H]1[C@@H]3C[C@H](F)C4=CC(=O)C=C[C@]4(C)[C@@]3(F)[C@@H](O)C[C@@]12C [Fluocinonide] | -1.7 ± 0.23 | -0.41 ± 0.14
4 | O=C1NC(=O)C(c2ccccc2[N+](=O)[O-])=C1Nc1ccc(O)c(Cl)c1 | -0.12 ± 0.14 | -0.6 ± 0.11
5 | CO[C@H]1/C=C/O[C@@]2(C)Oc3c(C)c(O)c4c(O)c(c5c(nc6cc(C)ccn65)c4c3C2=O)NC(=O)/C(C)=C\C=C\[C@H](C)[C@H](O)[C@@H](C)[C@@H](O)[C@@H](C)[C@H](OC(C)=O)[C@@H]1C [Rifaximin] | -0.24 ± 0.23 | -0.03 ± 0.13
6 | Cc1cc(NS(=O)(=O)c2ccc(N)cc2)no1 [Sulfamethoxazole] | 0.84 ± 0.24 | -0.95 ± 0.27
7 | CC1CNc2c(cccc2S(=O)(=O)N[C@@H](CCCNC(=N)N)C(=O)N2CC[C@@H](C)C[C@@H]2C(=O)O)C1 (stereo not given in full) [Argatroban] | 0.62 ± 0.24 | -0.53 ± 0.25
8 | CCCc1nc(C)c2c(=O)nc(-c3cc(S(=O)(=O)N4CCN(CC)CC4)ccc3OCC)[nH]n12 [Vardenafil HCl Trihydrate] | 0.12 ± 0.22 | 0.88 ± 0.3
9 | CCN(Cc1ccncc1)C(=O)C(CO)c1ccccc1 (stereo not given) [Tropicamide] | 0.46 ± 0.25 | -1.08 ± 0.3
10 | C[C@]12C=CC(=O)C=C1CC[C@H]1[C@@H]3C[C@@H](O)[C@](O)(C(=O)CO)[C@@]3(C)C[C@H](O)[C@@]12F [Triamcinolone] | 0.11 ± 0.25 | -0.19 ± 0.32
11 | CS(=O)(=O)c1cccc(CNc2nc(Nc3ccc4c(c3)CCC(=O)N4)ncc2C(F)(F)F)c1 | -0.9 ± 0.27 | -0.71 ± 0.31
12 | C[C@@H]1O[C@@H](O[C@H]2[C@H](Oc3cc(O)c4c(c3)O[C@H](c3ccc(O)cc3)CC4=O)O[C@H](CO)[C@@H](O)[C@@H]2O)[C@H](O)[C@H](O)[C@H]1O [Naringin] | -2.17 ± 1.2 | -3.68 ± 1.3
13 | CNC(CC(=O)O)C(=O)O [NMDA (N-Methyl-D-aspartic acid)] | -0.85 ± 0.17 | 0.01 ± 0.13
14 | CN1C(C(=O)Nc2ccccn2)=C(O)c2sccc2S1(=O)=O [Tenoxicam] | -0.23 ± 0.24 | 0.46 ± 0.31
15 | CN(C)c1cc(NC(=O)CNC(C)(C)C)c(O)c2c1C[C@H]1C[C@H]3[C@H](N(C)C)C(=O)C(C(N)=O)=C(O)[C@@]3(O)C(=O)C1=C2O [Tigecycline] | 0.74 ± 0.24 | -0.26 ± 0.29
16 | NS(=O)(=O)c1cc(C(=O)O)c(NCc2ccco2)cc1Cl [Furosemide] | -0.19 ± 0.2 | -0.26 ± 0.14
17 | COC(=O)N[C@H](C(=O)N1CCC[C@H]1c1ncc(-c2ccc(-c3ccc(-c4cnc([C@@H]5CCCN5C(=O)[C@@H](NC(=O)OC)C(C)C)[nH]4)cc3)cc2)[nH]1)C(C)C | -1.23 ± 0.17 | -0.34 ± 0.17
18 | CCOCC(O)COc1ccc(NC(=O)CC[S+](C)C)cc1 (stereo not given) [Suplatast Tosylate] | -1.04 ± 0.23 | -0.79 ± 0.26
19 | Cc1ncc([N+](=O)[O-])n1CC(C)O (stereo not given) [Secnidazole] | -0.17 ± 0.21 | 0.14 ± 0.2
20 | O=C1C(=O)N(Cc2ccc(Cl)c(Cl)c2)c2ccccc21 [Apoptosis Activator 2] | -1.18 ± 0.21 | -0.84 ± 0.14
21 | NCCCCCC(=O)O [(6-) e-Aminocaproic acid] | 0.58 ± 0.18 | 0.33 ± 0.19
22 | O=C(O)c1ccc2c(c1)nc(Nc1cccc(Cl)c1)c1ccncc12 [CX-4945 (Silmitasertib)] | 0.12 ± 0.31 | -0.36 ± 0.3
23 | c1ccc2c(CC3=NCCN3)cccc2c1 [Naphazoline HCl] | -0.26 ± 0.23 | 0.26 ± 0.31
24 | COc1ccc(F)c(F)c1C(=O)c1cnc(NC2CCN(S(C)(=O)=O)CC2)nc1N | -1.49 ± 0.26 | 0.16 ± 0.18
25 | COc1cnc(NS(=O)(=O)c2ccc(N)cc2)nc1 [Sulfameter] | 0.05 ± 0.24 | -0.42 ± 0.17
26 | Cn1c(=O)cc(N2CCC[C@@H](N)C2)n(Cc2ccccc2C#N)c1=O [Alogliptin] | -0.38 ± 0.16 | -0.18 ± 0.11
27 | Cc1ccc(F)c(NC(=O)Nc2ccc(-c3cccc4[nH]nc(N)c34)cc2)c1 [Linifanib (ABT-869)] | -0.24 ± 0.28 | -1.13 ± 0.28
28 | CC1(C)S[C@@H]2[C@H](NC(=O)[C@H](N)c3ccc(O)cc3)C(=O)N2[C@H]1C(=O)O [Amoxicillin] | -0.47 ± 0.21 | -0.12 ± 0.15

Row | Compound | rod outer segment growth distance Dg [1] [um] | rod outer segment shedding distance Ds [2] [um]
29 | Cc1ccc(NC(=O)c2cccc(C(C)(C)C#N)c2)cc1Nc1ccc2ncn(C)c(=O)c2c1 | -0.95 ± 0.17 | -0.65 ± 0.1
30 | CCC1=C(C)CN(C(=O)NCCc2ccc(S(=O)(=O)NC(=O)N[C@H]3CC[C@H](C)CC3)cc2)C1=O [Glimepiride] | 0.19 ± 0.29 | 0.42 ± 0.17
31 | N#C[C@@H]1CCCN1C(=O)CNC12CC3CC(CC(O)(C3)C1)C2 [Vildagliptin (LAF-237)] | -0.23 ± 0.17 | 0.06 ± 0.17
32 | N=c1ccn2c(n1)O[C@H]1[C@H](O)[C@@H](CO)O[C@H]12 [Cyclocytidine HCl] | 0.19 ± 0.42 | 0.1 ± 0.3
33 | COc1ccc2c(Oc3ccc(NC(=O)c4c(C)n(CC(C)(C)O)n(-c5ccccc5)c4=O)nc3)ccnc2c1 | -0.54 ± 0.14 | -0.7 ± 0.13
34 | CC[C@H](NC(=O)[C@H](C)NC)C(=O)N1C[C@@H](O)C[C@H]1Cc1c(-c2[nH]c3cc(F)ccc3c2C[C@@H]2C[C@H](O)CN2C(=O)[C@H](CC)NC(=O)[C@H](C)NC)[nH]c2cc(F)ccc12 [Birinapant] | -0.78 ± 0.16 | 0.46 ± 0.12
35 | CN(Cc1cnc2nc(N)nc(N)c2n1)c1ccc(C(=O)N[C@@H](CCC(=O)O)C(=O)O)cc1 [Methotrexate] | 0.65 ± 0.22 | -0.71 ± 0.25
36 | COC(=O)Nc1nc2cc(C(=O)c3ccc(F)cc3)ccc2[nH]1 [Flubendazole] | -1.12 ± 0.18 | -1.21 ± 0.25
37 | Nc1nc(F)nc2c1ncn2[C@@H]1O[C@H](COP(=O)(O)O)[C@@H](O)[C@@H]1O [Fludarabine Phosphate] | -0.98 ± 0.26 | 0.17 ± 0.22
38 | O=C(NC(Cc1cc(=O)[nH]c2ccccc12)C(=O)O)c1ccc(Cl)cc1 (stereo not given) [Rebamipide] | -0.23 ± 0.27 | -0.33 ± 0.3
39 | CS(=O)(=O)OCCCCOS(C)(=O)=O [Busulfan] | 0.25 ± 0.17 | 0.54 ± 0.18
40 | CC(C)CN(C[C@@H](O)[C@H](Cc1ccccc1)NC(=O)O[C@H]1CO[C@H]2OCC[C@H]21)S(=O)(=O)c1ccc(N)cc1 [Darunavir Ethanolate] | 0.16 ± 0.2 | -0.34 ± 0.18
41 | COCCc1ccc(OCC(O)CNC(C)C)cc1 (stereo not given) [Metoprolol Tartrate] | -0.73 ± 0.19 | -1.61 ± 0.28
42 | C[C@H]1O[C@H](O[C@H]2[C@H](O)[C@@H](O)[C@@H](O[C@@H]([C@H](O)[C@@H](O)C=O)[C@H](O)CO)O[C@@H]2CO)[C@H](O)[C@@H](O)[C@@H]1N[C@H]1C=C(CO)[C@@H](O)[C@H](O)[C@H]1O [Acarbose] | 0.54 ± 0.23 | 0.35 ± 0.23
43 | CC1=C(/C=C/C(C)=C/C=C/C(C)=C\C(=O)O)C(C)(C)CCC1 [Isotretinoin] | -0.21 ± 0.22 | -0.28 ± 0.21
44 | O=C1c2c(O)cc(O)cc2OC(c2ccc(O)c(O)c2)C1O (stereo not given) [Taxifolin (Dihydroquercetin)] | -0.22 ± 0.22 | 0.57 ± 0.27
45 | O=C(O[C@@H]1Cc2c(O)cc(O)cc2O[C@@H]1c1cc(O)c(O)c(O)c1)c1cc(O)c(O)c(O)c1 [(-)-Epigallocatechin Gallate] | -1.2 ± 0.32 | -0.98 ± 0.28
46 | CN(CCOc1ccc(CC2SC(=O)NC2=O)cc1)c1ccccn1 (stereo not given) [Rosiglitazone] | -1.78 ± 0.24 | -0.75 ± 0.15
47 | Cc1ccc(C)c(OCCCC(C)(C)C(=O)O)c1 [Gemfibrozil] | 0.75 ± 0.28 | -0.58 ± 0.16
48 | COc1ccc2[nH]c([S@@+]([O-])Cc3ncc(C)c(OC)c3C)nc2c1 [Esomeprazole Sodium] | -0.55 ± 0.29 | -0.45 ± 0.31
49 | O=S(=O)(c1cccc2cnccc12)N1CCCNCC1 [Fasudil (HA-1077) HCl] | -0.26 ± 0.15 | -0.73 ± 0.17
50 | c1coc(CNc2ncnc3[nH]cnc23)c1 [Kinetin] | 0.41 ± 0.3 | 0.8 ± 0.3
51 | O=c1[nH]c(=O)n([C@H]2C[C@H](O)[C@@H](CO)O2)cc1I [Idoxuridine] | 1.16 ± 0.19 | 0.54 ± 0.26
52 | CCCCCCCCCCCC1=C(O)C(=O)C=C(O)C1=O [Embelin] | -0.47 ± 0.19 | 0.04 ± 0.13
53 | C[C@H](O)[C@H](O)[C@@H](O)[C@@H](O)C=O [L-(+)-Rhamnose Monohydrate] | 0.64 ± 0.31 | 0.07 ± 0.29
54 | CCOc1ccccc1N=Nc1c(C)[nH]n(-c2nc(-c3ccccc3)cs2)c1=O | -0.11 ± 0.29 | -0.63 ± 0.31
55 | CNC(=C[N+](=O)[O-])NCCSCc1csc(CN(C)C)n1 [Nizatidine] | 0.67 ± 0.24 | 0.7 ± 0.3

By substructure: the entries above containing a CF3 group (2)
Row | Compound | rod outer segment growth distance Dg [1] [um] | rod outer segment shedding distance Ds [2] [um]
2 | CNC(=O)c1ccc(N2C(=S)N(c3cnc(C#N)c(C(F)(F)F)c3)C(=O)C23CCC3)cc1F | 0.68 ± 0.17 | -0.49 ± 0.12
11 | CS(=O)(=O)c1cccc(CNc2nc(Nc3ccc4c(c3)CCC(=O)N4)ncc2C(F)(F)F)c1 | -0.9 ± 0.27 | -0.71 ± 0.31
